System: human induced pluripotent stem cell-derived cardiomyocytes (hiPSC-CMs)
Experiment: Field potential recording of hiPSC-CM sheets on multi-electrode array (MEA)
Format: cell-based
Protocol: The cells were thawed and suspended in iCell Cardiomyocytes Plating Medium (Cellular Dynamics International), then plated (approximately 2 × 10^6 cells/well) in 6-well tissue-culture plates coated with 0.1% gelatin. After two days of incubation at 37°C under an atmosphere of 5% CO2, the plating medium was replaced with iCell Cardiomyocytes Maintenance Medium (Cellular Dynamics International); this medium was used as the culture medium throughout the experiments and was replaced every 1 to 3 days. The cells were cultured for 7 to 14 days in a 5% CO2 incubator at 37°C and then re-plated onto MEA probes (MED-P515A or MED-PG515A; Alpha Med Scientific, Osaka, Japan).
The recording areas of the MEA probes were coated with fibronectin (Becton Dickinson, Franklin Lakes, NJ, USA; Invitrogen, Carlsbad, CA, USA; Corning, Corning, NY, USA). Fibronectin was dissolved in distilled water or Dulbecco's phosphate-buffered saline (PBS) [−] to give 50 μg/mL, the recording areas were covered with 2 μL fibronectin solution, and then the MEA probes were incubated at 37°C for at least 1 h. […] After discarding the fibronectin solution from the MEA probes without complete drying, the cell suspension at a density of 3.0 × 10^4 cells in a 2 μL droplet was re-plated onto the fibronectin-coated area of each MEA probe and incubated for 1 to 3 h in a 5% CO2 incubator at 37°C. Each well of the MEA probes was then filled with maintenance medium at a volume of 1 mL/well. The medium was replaced every 1 to 3 days thereafter, and the cells were cultured for 5 to 14 days to obtain high density cardiomyocyte-sheets with spontaneous and synchronous electrical activities.
Prior to recording FPs, the cardiomyocyte-sheets were equilibrated for at least 30 min in a 5% CO2 incubator at 37°C in fresh culture medium. The MEA probes were then transferred to a FP measurement apparatus (MED64 system; Alpha Med Scientific, Osaka, Japan) and covered with a lid through which humidified gas containing 5% CO2 was provided. […] Analogue FP signals from the spontaneously beating cardiomyocyte-sheets were acquired through a 0.1-Hz high-pass filter and a 5-kHz low-pass filter, and digitized at 20 kHz using the MED64 system. […] Compound stock solutions were prepared using DMSO at 1000-fold the target concentrations of the test compounds. The stock solutions were diluted with the maintenance medium to obtain the appropriate compound concentrations, then 1/10th to 1/50th the volume of the medium in the wells was exchanged with an equal volume of the compound-containing medium. The compounds were applied in a cumulative manner to the wells. The concentration of DMSO was 0.5–0.6% at the highest concentration of the test compounds. […] FPD (ms) and ISI (ms) were analyzed using Mobius QT software designed by WitWerx (Santa Cruz, CA, USA) (Fig 1b).
Baseline FP waveforms that met the following criteria were used for analysis. […] In the FP signals, EAD and TA were defined as slow negative spikes and a sharp deflection with an amplitude ≥ ± 100 μV, respectively (Fig 1c). EAD, TA or both usually appear during or after the second positive deflection. ISI, FPD and FPDcF were not calculated for concentrations in which EAD or TA were observed.
As previously mentioned, total 96 data equally from 4 facilities each were used for the analysis (24 data per facility). […] The root mean squared prediction error (RMSE) was used to show the level of accuracy of the equation predicted for the observed data (Fig 2). With categorical data analysis of FPD, inter-facilities differences were investigated with Kruskal-Wallis test (Fig 4).

[1] = E-4031 1 nM, all 4 facilities, n=24
[2] = E-4031 3 nM, all 4 facilities, n=24
[3] = E-4031 10 nM, all 4 facilities, n=24

- Preparations in absolute FPD category > 450 ms [1]: 29%(7/24)
- Preparations in absolute FPD category > 480 ms [1]: 8%(2/24)
- Preparations in absolute FPD category > 500 ms [1]: 29%(7/24)
- Preparations in absolute FPD category ≤ 450 ms [1]: 33%(8/24)
- Preparations in absolute FPD category > 450 ms (E-4031 1 nM, facility A, n=6): 50%(3/6)
- Preparations in absolute FPD category > 480 ms (E-4031 1 nM, facility A, n=6): 0%(0/6)
- Preparations in absolute FPD category > 500 ms (E-4031 1 nM, facility A, n=6): 33%(2/6)
- Preparations in absolute FPD category ≤ 450 ms (E-4031 1 nM, facility A, n=6): 17%(1/6)
- Preparations in absolute FPD category > 450 ms (E-4031 1 nM, facility B, n=6): 50%(3/6)
- Preparations in absolute FPD category > 480 ms (E-4031 1 nM, facility B, n=6): 0%(0/6)
- Preparations in absolute FPD category > 500 ms (E-4031 1 nM, facility B, n=6): 0%(0/6)
- Preparations in absolute FPD category ≤ 450 ms (E-4031 1 nM, facility B, n=6): 50%(3/6)
- Preparations in absolute FPD category > 450 ms (E-4031 1 nM, facility C, n=6): 17%(1/6)
- Preparations in absolute FPD category > 480 ms (E-4031 1 nM, facility C, n=6): 0%(0/6)
- Preparations in absolute FPD category > 500 ms (E-4031 1 nM, facility C, n=6): 17%(1/6)
- Preparations in absolute FPD category ≤ 450 ms (E-4031 1 nM, facility C, n=6): 67%(4/6)
- Preparations in absolute FPD category > 450 ms (E-4031 1 nM, facility D, n=6): 0%(0/6)
- Preparations in absolute FPD category > 480 ms (E-4031 1 nM, facility D, n=6): 33%(2/6)
- Preparations in absolute FPD category > 500 ms (E-4031 1 nM, facility D, n=6): 67%(4/6)
- Preparations in absolute FPD category ≤ 450 ms (E-4031 1 nM, facility D, n=6): 0%(0/6)
- Preparations in absolute FPD category > 450 ms [2]: 29%(7/24)
- Preparations in absolute FPD category > 480 ms [2]: 13%(3/24)
- Preparations in absolute FPD category ≤ 450 ms [2]: 8%(2/24)
- Preparations in absolute FPD category > 450 ms (E-4031 3 nM, facility A, n=6): 33%(2/6)
- Preparations in absolute FPD category > 480 ms (E-4031 3 nM, facility A, n=6): 17%(1/6)
- Preparations in absolute FPD category > 500 ms (E-4031 3 nM, facility A, n=6): 50%(3/6)
- Preparations in absolute FPD category ≤ 450 ms (E-4031 3 nM, facility A, n=6): 0%(0/6)
- Preparations in absolute FPD category > 450 ms (E-4031 3 nM, facility B, n=6): 33%(2/6)
- Preparations in absolute FPD category > 480 ms (E-4031 3 nM, facility B, n=6): 33%(2/6)
- Preparations in absolute FPD category > 500 ms (E-4031 3 nM, facility B, n=6): 33%(2/6)
- Preparations in absolute FPD category ≤ 450 ms (E-4031 3 nM, facility B, n=6): 0%(0/6)
- Preparations in absolute FPD category > 450 ms (E-4031 3 nM, facility C, n=6): 50%(3/6)
- Preparations in absolute FPD category > 480 ms (E-4031 3 nM, facility C, n=6): 0%(0/6)
- Preparations in absolute FPD category > 500 ms (E-4031 3 nM, facility C, n=6): 17%(1/6)
- Preparations in absolute FPD category ≤ 450 ms (E-4031 3 nM, facility C, n=6): 33%(2/6)
- Preparations in absolute FPD category > 450 ms (E-4031 3 nM, facility D, n=6): 0%(0/6)
- Preparations in absolute FPD category > 480 ms (E-4031 3 nM, facility D, n=6): 0%(0/6)
- Preparations in absolute FPD category > 500 ms (E-4031 3 nM, facility D, n=6): 100%(6/6)
- Preparations in absolute FPD category ≤ 450 ms (E-4031 3 nM, facility D, n=6): 0%(0/6)
- Preparations in absolute FPD category > 450 ms [3]: 0%(0/24)
- Preparations in absolute FPD category > 480 ms [3]: 0%(0/24)
- Preparations in absolute FPD category ≤ 450 ms [3]: 4%(1/24)
- Preparations with EAD/TA [3]: 29%(7/24)
- Number of preparations that showed EAD/TAs (E-4031 10 nM, all 4 facilities, of 24): 7 preparations
- Preparations in absolute FPD category > 450 ms (E-4031 10 nM, facility A, n=6): 0%(0/6)
- Preparations in absolute FPD category > 480 ms (E-4031 10 nM, facility A, n=6): 0%(0/6)
- Preparations in absolute FPD category > 500 ms (E-4031 10 nM, facility A, n=6): 67%(4/6)
- Preparations in absolute FPD category ≤ 450 ms (E-4031 10 nM, facility A, n=6): 0%(0/6)
- Preparations with EAD/TA (E-4031 10 nM, facility A, n=6): 33%(2/6)
- Preparations in absolute FPD category > 450 ms (E-4031 10 nM, facility B, n=6): 0%(0/6)
- Preparations in absolute FPD category > 480 ms (E-4031 10 nM, facility B, n=6): 0%(0/6)
- Preparations in absolute FPD category > 500 ms (E-4031 10 nM, facility B, n=6): 100%(6/6)
- Preparations in absolute FPD category ≤ 450 ms (E-4031 10 nM, facility B, n=6): 0%(0/6)
- Preparations in absolute FPD category > 450 ms (E-4031 10 nM, facility C, n=6): 0%(0/6)
- Preparations in absolute FPD category > 480 ms (E-4031 10 nM, facility C, n=6): 0%(0/6)
- Preparations in absolute FPD category > 500 ms (E-4031 10 nM, facility C, n=6): 83%(5/6)
- Preparations in absolute FPD category ≤ 450 ms (E-4031 10 nM, facility C, n=6): 17%(1/6)
- Preparations in absolute FPD category > 450 ms (E-4031 10 nM, facility D, n=6): 0%(0/6)
- Preparations in absolute FPD category > 480 ms (E-4031 10 nM, facility D, n=6): 0%(0/6)
- Preparations in absolute FPD category > 500 ms (E-4031 10 nM, facility D, n=6): 17%(1/6)
- Preparations in absolute FPD category ≤ 450 ms (E-4031 10 nM, facility D, n=6): 0%(0/6)
- Preparations with EAD/TA (E-4031 10 nM, facility D, n=6): 83%(5/6)
- Preparations with EAD/TA (E-4031 30 nM, facility A, n=6): 100%(6/6)
- Preparations with EAD/TA (E-4031 30 nM, facility B, n=6): 100%(6/6)
- Preparations in absolute FPD category > 450 ms (E-4031 30 nM, facility C, n=6): 0%(0/6)
- Preparations in absolute FPD category > 480 ms (E-4031 30 nM, facility C, n=6): 0%(0/6)
- Preparations in absolute FPD category > 500 ms (E-4031 30 nM, facility C, n=6): 17%(1/6)
- Preparations in absolute FPD category ≤ 450 ms (E-4031 30 nM, facility C, n=6): 0%(0/6)
- Preparations with EAD/TA (E-4031 30 nM, facility C, n=6): 83%(5/6)
- Preparations with EAD/TA (E-4031 30 nM, facility D, n=6): 100%(6/6)
- Preparations with EAD/TA (E-4031 100 nM, all 4 facilities, n=24): 100%(24/24)
- Preparations with EAD/TA (E-4031 100 nM, facility C, n=6): 100%(6/6)
SMILES: Cc1cccc(CCN2CCC(C(=O)c3ccc(NS(C)(=O)=O)cc3)CC2)n1 [E-4031]
- Delta FPDcF (categorical analysis, Fridericia correction, S5 Table): increased in a concentration-dependent manner
- Delta FPD (categorical analysis, S4 Table): increased in a concentration-dependent manner
- Effect on FPD (cumulative application): prolonged FPD in a concentration-dependent manner

Source: PMC5140066, “Electrophysiological Characteristics of Human iPSC-Derived Cardiomyocytes for the Assessment of Drug-Induced Proarrhythmic Potential” (PLoS ONE, 2016)
